Test results from paper PMC5041916.
These are yes or no findings as the source states them, for the method shown. Binding seen in cells or lysates may run through a third protein. Some entries that bind do so weakly or less than the wild type.

The chains behind the UniProt entries cited, without tags or fusion partners.
UniProt P15311: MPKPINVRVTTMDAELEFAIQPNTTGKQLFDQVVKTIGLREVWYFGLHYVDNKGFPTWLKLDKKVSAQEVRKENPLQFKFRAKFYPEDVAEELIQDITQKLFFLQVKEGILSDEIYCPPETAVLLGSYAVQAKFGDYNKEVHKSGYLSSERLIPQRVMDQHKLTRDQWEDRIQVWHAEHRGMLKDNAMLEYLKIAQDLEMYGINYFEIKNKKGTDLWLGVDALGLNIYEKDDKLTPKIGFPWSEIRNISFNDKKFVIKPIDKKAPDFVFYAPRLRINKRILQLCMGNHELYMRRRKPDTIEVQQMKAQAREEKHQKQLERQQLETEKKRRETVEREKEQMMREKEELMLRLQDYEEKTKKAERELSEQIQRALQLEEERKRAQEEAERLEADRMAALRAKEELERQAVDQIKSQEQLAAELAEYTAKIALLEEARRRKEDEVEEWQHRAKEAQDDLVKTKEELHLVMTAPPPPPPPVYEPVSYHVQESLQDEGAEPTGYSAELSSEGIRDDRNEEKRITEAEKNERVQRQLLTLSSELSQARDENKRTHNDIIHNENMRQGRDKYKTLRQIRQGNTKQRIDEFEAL
UniProt P35241: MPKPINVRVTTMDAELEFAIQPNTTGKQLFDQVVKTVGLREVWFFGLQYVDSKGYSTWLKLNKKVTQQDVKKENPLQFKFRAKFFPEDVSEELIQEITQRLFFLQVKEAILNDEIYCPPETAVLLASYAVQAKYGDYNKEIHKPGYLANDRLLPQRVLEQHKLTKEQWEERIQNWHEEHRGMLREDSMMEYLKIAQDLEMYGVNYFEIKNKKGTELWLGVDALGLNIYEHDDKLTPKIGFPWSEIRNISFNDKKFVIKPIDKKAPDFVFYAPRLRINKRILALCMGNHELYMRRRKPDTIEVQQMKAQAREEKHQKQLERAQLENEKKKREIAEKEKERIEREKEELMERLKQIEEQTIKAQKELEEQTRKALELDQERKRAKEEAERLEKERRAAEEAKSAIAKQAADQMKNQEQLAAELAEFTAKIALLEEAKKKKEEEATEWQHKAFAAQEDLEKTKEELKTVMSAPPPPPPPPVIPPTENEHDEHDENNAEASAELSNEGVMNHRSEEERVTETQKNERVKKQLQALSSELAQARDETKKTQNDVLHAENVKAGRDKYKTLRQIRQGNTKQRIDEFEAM

Target: ErbB2 receptor tyrosine kinase (human (endogenous in SKBR3)) (UniProt P04626)
Assay: proximity ligation; Duolink-II in situ PLA on fixed, permeabilized SKBR3 cells, endogenous proteins, pairs of primary antibodies; untreated or control-siRNA cells; also after 2 h 3 uM geldanamycin, or siRNA against ezrin, radixin or ErbB2 (association reduced)

Row | binding | Substance
1 | binds | ezrin (from UniProt P15311 1-586)
2 | binds | radixin (from UniProt P35241 1-583)
